Measurements reported in PubChem BioAssay AID1508588 (Peter MacCallum Cancer Centre, 2020).

Assay: 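Genome-wide search for knock-downs that heighten vemurafenib action in melanoma cells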 (primary screen)
Cell system: human WM266.4 melanoma cells (BRAF V600 mutant)
Reagent: siRNA pool against human genes, 40 nM
Time to read-out: 96 h from transfection to read-out
Treatment: vemurafenib 300 nM (about IC25), added 48 h after transfection, for 48 h; comparison arm got DMSO vehicle only
Detection: 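Ratios to non-targeting siRNA for cell gain, counted as DAPI nuclei after minus before drug and averaged over two replicates, and for absorbance-read medium lactate per cell; both binned into fold-change classes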
Scale: cell gain with vemurafenib: higher = more cell gain than with non-targeting siRNA; lactate per cell with vemurafenib: higher = more lactate made per cell
Call rule: 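a knock-down counts as enhancing when its fold-change classes with vehicle and with vemurafenib, taken together, show a stronger drug effect on cell gain or lactate per cell; exact class pairs not stated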
Calls: active = enhances vemurafenib effect; inactive = no enhancement seen
Shown is one part, drawn at random, of about 18,000 deposited reagents. In the full data, 790 (4.4%) are marked active. 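Calls rest on a combination of fold-change classes in drug and vehicle arms, not all shown here.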

The opening 3 records, to show the layout:
PALB2 → cell gain with vemurafenib: 0.21; lactate per cell with vemurafenib: 0.78; call: inactive
HSDL1 → cell gain with vemurafenib: 0.45; lactate per cell with vemurafenib: 1.7; call: inactive
HIF1AN → cell gain with vemurafenib: 0.49; lactate per cell with vemurafenib: 0.88; call: inactive

The list itself, repeating the preview:
PALB2 → cell gain with vemurafenib: 0.21; lactate per cell with vemurafenib: 0.78; call: inactive
HSDL1 → cell gain with vemurafenib: 0.45; lactate per cell with vemurafenib: 1.7; call: inactive
HIF1AN → cell gain with vemurafenib: 0.49; lactate per cell with vemurafenib: 0.88; call: inactive
EHD1 → cell gain with vemurafenib: 0.27; lactate per cell with vemurafenib: 1.2; call: inactive
ATG9A → cell gain with vemurafenib: 0.3; lactate per cell with vemurafenib: 1.65; call: inactive
RPL38 → cell gain with vemurafenib: 0; lactate per cell with vemurafenib: 1.73; call: inactive
GGT5 → cell gain with vemurafenib: 0.4; lactate per cell with vemurafenib: 0.6; call: inactive
UBR7 → cell gain with vemurafenib: 0.95; lactate per cell with vemurafenib: 0.8; call: inactive
GIPC3 → cell gain with vemurafenib: 0.55; lactate per cell with vemurafenib: 1.26; call: inactive
ALDOA → cell gain with vemurafenib: -0.17; lactate per cell with vemurafenib: 5.53; call: inactive
SDK2 → cell gain with vemurafenib: 0.46; lactate per cell with vemurafenib: 0.98; call: inactive
FOXN3 → cell gain with vemurafenib: 0.68; lactate per cell with vemurafenib: 0.82; call: inactive
DCXR → cell gain with vemurafenib: 0.89; lactate per cell with vemurafenib: 0.8; call: inactive
S100A2 → cell gain with vemurafenib: 0.72; lactate per cell with vemurafenib: 0.66; call: inactive
MLNR → cell gain with vemurafenib: 0.06; lactate per cell with vemurafenib: 1.25; call: inactive
DEK → cell gain with vemurafenib: 0.09; lactate per cell with vemurafenib: 1.1; call: inactive
VAMP1 → cell gain with vemurafenib: 0.12; lactate per cell with vemurafenib: 2.46; call: inactive
TSPAN18 → cell gain with vemurafenib: 0.22; lactate per cell with vemurafenib: 0.96; call: inactive
STIM2 → cell gain with vemurafenib: 0.42; lactate per cell with vemurafenib: 1.46; call: inactive
LMX1B → cell gain with vemurafenib: 0.23; lactate per cell with vemurafenib: 1.81; call: inactive
ZNF761 → cell gain with vemurafenib: 0.2; lactate per cell with vemurafenib: 2.27; call: inactive
C2orf66 → cell gain with vemurafenib: 0.01; lactate per cell with vemurafenib: 1.04; call: inactive
A3GALT2 → cell gain with vemurafenib: 0.69; lactate per cell with vemurafenib: 0.92; call: inactive
ANGPTL7 → cell gain with vemurafenib: 0.49; lactate per cell with vemurafenib: 1.37; call: inactive
UBE3C → cell gain with vemurafenib: 0.63; lactate per cell with vemurafenib: 1.08; call: inactive
ANKRD33 → cell gain with vemurafenib: 0.64; lactate per cell with vemurafenib: 1.21; call: inactive
KLF11 → cell gain with vemurafenib: 0.46; lactate per cell with vemurafenib: 0.84; call: inactive
